The values below come from article PMC7340788, “Structure of the yeast Swi/Snf complex in a nucleosome free state” (Nature Communications, 2020).

By UniProt entry, the sequences of proteins in these tests, tags left out.
UniProt P18888: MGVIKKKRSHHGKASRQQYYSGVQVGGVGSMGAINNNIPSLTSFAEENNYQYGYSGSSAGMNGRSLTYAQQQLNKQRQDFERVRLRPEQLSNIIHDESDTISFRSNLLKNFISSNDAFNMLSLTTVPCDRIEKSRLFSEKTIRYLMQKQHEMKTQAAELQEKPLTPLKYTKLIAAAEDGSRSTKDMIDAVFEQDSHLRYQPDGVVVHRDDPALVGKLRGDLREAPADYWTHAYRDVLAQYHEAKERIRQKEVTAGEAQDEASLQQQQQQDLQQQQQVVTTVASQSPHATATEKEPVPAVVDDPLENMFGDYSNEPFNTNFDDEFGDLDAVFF
UniProt Q12406: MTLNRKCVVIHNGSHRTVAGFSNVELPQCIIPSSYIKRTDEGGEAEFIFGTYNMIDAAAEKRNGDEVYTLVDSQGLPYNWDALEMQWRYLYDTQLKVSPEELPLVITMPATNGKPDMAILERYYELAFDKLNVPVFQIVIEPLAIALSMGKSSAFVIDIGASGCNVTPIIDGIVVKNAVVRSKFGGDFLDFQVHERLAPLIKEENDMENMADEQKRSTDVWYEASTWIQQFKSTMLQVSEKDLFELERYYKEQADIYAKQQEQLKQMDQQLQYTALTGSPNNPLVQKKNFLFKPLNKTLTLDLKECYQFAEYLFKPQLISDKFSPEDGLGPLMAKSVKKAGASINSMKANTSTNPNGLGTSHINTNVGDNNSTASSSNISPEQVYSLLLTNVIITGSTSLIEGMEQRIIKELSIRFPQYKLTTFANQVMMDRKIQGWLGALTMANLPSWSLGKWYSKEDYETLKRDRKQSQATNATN
UniProt Q05123: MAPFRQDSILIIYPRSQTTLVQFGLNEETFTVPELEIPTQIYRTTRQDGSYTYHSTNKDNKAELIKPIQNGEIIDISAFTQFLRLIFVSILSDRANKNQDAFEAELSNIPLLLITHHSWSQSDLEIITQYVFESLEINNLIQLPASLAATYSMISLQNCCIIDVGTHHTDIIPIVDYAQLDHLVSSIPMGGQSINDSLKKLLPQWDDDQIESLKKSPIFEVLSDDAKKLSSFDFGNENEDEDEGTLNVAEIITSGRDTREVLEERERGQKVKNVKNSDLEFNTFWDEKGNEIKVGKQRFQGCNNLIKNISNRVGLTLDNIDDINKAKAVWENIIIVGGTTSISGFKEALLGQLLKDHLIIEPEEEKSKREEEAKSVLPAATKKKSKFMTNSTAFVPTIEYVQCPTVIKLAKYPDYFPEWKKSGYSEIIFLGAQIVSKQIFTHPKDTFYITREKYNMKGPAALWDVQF
UniProt P35189: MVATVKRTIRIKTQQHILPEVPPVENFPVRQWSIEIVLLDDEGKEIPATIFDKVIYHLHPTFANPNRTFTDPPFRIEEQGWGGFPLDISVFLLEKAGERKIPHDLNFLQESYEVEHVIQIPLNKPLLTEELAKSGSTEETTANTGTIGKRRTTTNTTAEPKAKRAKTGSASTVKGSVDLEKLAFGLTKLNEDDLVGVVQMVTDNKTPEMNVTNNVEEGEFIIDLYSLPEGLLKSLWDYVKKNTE

These are yes or no findings as the source states them, for the method shown. Binding seen in cells or lysates may run through a third protein. Here binding means that the protein was enriched with, or labelled near, the bait; the list need not be complete.

B1: Rtt102 (protein, UniProt P53330 1-157)
chain: MDPQTLITKANKVSYYGNPTSKESWRYDWYQPSKVSSNVQQPQQQLGDMENNLEKYPFRYKTWLRNQEDEKNLQRESCEDILDLKEFDRRILKKSLMTSHTKGDTSKATGAPSANQGDEALSVDDIRGAVGNSEAIPGLSAGVNNDNTKESKDVKMN
B2: Snf11 (protein, UniProt P38956 1-169)
chain: MSSEIAYSNTNTNTENENRNTGAGVDVNTNANANANATANATANATANATAELNLPTVDEQRQYKVQLLLHINSILLARVIQMNNSLQNNLQNNINNSNNNNIIRIQQLISQFLKRVHANLQCISQINQGVPSAKPLILTPPQLANQQQPPQDILSKLYLLLARVFEIW

This assay concerns the target Snf6 with a C-terminal 3-Flag tag (S. cerevisiae) (UniProt P18888). Briefly: affinity purification with mass spectrometry; Snf6-3Flag from yeast extract on ANTI-FLAG M2 resin, eluted with FLAG peptide, Superose 6 in 20 mM HEPES pH 7.4, 350 mM NaCl; SDS-PAGE bands identified by LC-MS/MS.
For the molecule Arp7 (from UniProt Q12406 1-477), the binding result is recorded as “binds”.

As for Arp9 (from UniProt Q05123 1-467), the binding result is reported as “binds”.

Take Taf14 (from UniProt P35189 1-244): the binding entry was “binds”.

As for B1, the binding result is on record as “binds”.

Consider B2, for which the binding entry was “binds”.
